Laboratory results taken from PMC4358367, “Structural basis of diverse membrane target recognitions by ankyrins” (eLife, 2014).

Assays:
[1] = biological target: T1, AnkG_repeats (24 ANK repeats of rat 190 kDa ankyrin-G, residues 38–855) (rat) (UniProt O70511); assay: ITC; VP-ITC at 25°C; 50 mM Tris pH 7.5, 100 mM NaCl, 1 mM EDTA, 1 mM DTT; binding partner (AS, Nav1.2 ABD proteins, neurofascin ABD; 200–300 µM) in the syringe, ANK repeats (20–30 µM) in the cell; one-site binding model; both purified
T1 sequence: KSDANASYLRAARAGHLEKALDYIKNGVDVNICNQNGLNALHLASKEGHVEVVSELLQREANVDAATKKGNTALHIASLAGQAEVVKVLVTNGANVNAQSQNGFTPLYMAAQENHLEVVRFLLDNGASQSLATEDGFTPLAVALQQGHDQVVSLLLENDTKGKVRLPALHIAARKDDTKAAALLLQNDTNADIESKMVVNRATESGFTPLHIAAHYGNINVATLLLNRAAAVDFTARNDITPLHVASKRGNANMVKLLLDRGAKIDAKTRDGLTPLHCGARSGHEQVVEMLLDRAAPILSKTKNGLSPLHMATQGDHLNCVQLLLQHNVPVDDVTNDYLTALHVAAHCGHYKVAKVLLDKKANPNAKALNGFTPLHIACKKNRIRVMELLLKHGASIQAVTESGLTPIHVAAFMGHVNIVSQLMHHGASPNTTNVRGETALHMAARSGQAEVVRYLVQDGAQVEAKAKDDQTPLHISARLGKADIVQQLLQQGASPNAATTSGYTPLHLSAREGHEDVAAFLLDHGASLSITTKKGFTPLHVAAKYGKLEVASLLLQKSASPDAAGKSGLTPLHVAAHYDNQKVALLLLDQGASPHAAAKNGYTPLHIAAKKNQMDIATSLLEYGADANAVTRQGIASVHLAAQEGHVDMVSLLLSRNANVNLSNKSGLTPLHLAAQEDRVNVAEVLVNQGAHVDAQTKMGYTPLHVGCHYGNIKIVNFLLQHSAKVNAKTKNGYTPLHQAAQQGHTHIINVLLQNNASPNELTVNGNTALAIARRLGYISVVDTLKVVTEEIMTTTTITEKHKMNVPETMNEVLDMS

[2] = biological target: T1, AnkG_repeats (24 ANK repeats of rat 190 kDa ankyrin-G, residues 38–855) (rat); assay: SEC; analytical gel filtration, Superose 12 10/300 GL; 50 mM Tris pH 7.5, 100 mM NaCl, 1 mM EDTA, 1 mM DTT; AS fused to the N-terminus of AnkG_repeats mixed with Nav1.2 ABD or Nfasc ABD; both purified
[3] = biological target: T2, AnkB_repeats_R1–9 (first nine ANK repeats of AnkB, residues 28–318, followed by the capping sequence 814–822) (human) (UniProt Q01484); assay: crystal structure; Nav1.2_ABD-C fused in front of AnkB_repeats_R1–9 on one chain; 2.5 Å; 1.8 M ammonium sulfate, 6–8% dioxane, 0.1 M MES pH 6.5, 16°C; both purified
T2 sequence: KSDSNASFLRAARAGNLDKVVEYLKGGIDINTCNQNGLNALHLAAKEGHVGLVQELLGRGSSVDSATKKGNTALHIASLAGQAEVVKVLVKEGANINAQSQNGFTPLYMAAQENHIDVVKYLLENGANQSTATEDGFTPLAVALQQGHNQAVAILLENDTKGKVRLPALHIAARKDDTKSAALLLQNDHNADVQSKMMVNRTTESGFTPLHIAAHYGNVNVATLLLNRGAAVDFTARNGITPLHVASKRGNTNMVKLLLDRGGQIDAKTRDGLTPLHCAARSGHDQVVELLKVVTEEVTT

Substance: Nav1.2 ABD without the C-terminal less-conserved 10 residues of ABD-C (mouse) (domain or fragment)
- binding [1]: binds

Substance: Nav1.2_ABD (ankyrin binding domain of Nav1.2, residues 1035–1129) (mouse) (domain or fragment)
- binding [2]: binds

Substance: Nav1.2_ABD-C (27-residue motif of loop 2, residues 1103–1129) (mouse) (domain or fragment)
- binding [3]: binds

These are yes or no findings as the source states them, for the method shown. Binding can be weak; no strength is given.
